Assay results: patent US20050187175A1 (published 2005)
Results are given in words; binding and its absence hold for the method and conditions named. For part of these data: In cells and extracts the contact can be indirect. Some results given as binding are weak or reduced against the parent protein; the word gives no strength. For part of these data: Sequences can lack the tags named with a protein.

T1: CPG15 (UniProt Q8CFV4)
T1 sequence (looked up): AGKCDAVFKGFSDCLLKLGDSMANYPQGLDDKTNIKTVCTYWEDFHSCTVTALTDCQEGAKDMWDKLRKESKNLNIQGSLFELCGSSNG

T2: FLAG-tagged CPG15 (UniProt Q8CFV4)
T2 sequence (glycosylated; GPI-anchored form on cells (as the filing reports), looked up): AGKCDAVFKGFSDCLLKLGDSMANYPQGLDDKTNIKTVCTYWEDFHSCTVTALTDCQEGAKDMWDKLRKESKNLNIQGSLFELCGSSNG


What was measured:
[1] = target: T1, CPG15; assay: non-reducing SDS-PAGE of whole cell extracts of transfected HEK293T cells
[2] = target: T1, CPG15; assay: SDS-PAGE of whole cell lysates under reducing or non-reducing conditions, FIG. 4A
[3] = target: T2, FLAG-tagged CPG15; assay: co-immunoprecipitation from transfected HEK293T cell lysate: anti-FLAG IP, anti-His Western blot

Row | binding [1] | binding [2] | binding [3] | Binder
1 | binds | binds |  | CPG15-2 (other, also called mouse CPG15-2) SEGPNRCDTIYQGFAECLIRLGDGMGRGGELQTVCRSWNDFHACASRVLSGCPEEAAAVWESLQQEARRAPHPDNLHILCGAPVSVRERIAGPETNQETLRATA
2 |  |  | binds | His-tagged CPG15-2 (protein, not shown: small tags and cut ends) SEGPNRCDTIYQGFAECLIRLGDGMGRGGELQTVCRSWNDFHACASRVLSGCPEEAAAVWESLQQEARRAPHPDNLHILCGAPVSVRERIAGPETNQETLRATA
